# System: A431 cells
# Assay: Cell uptake in live cells
# Type: cell-based
# Conditions: 5 μM solution of dye in PBS, well F12, imaging check
# Description: Therefore, we performed such experiments in live cells with Compound VIII compound. […] The following procedure was used:
# Cells were grown in 96 well plates to confluent level. Media was removed, cells washed with PBS, incubated for a set time (5, 15, or 30 minutes) at varying concentrations of the dye (5 μM, 10 μM, and 25 μM) in PBS. Dye was removed, cells washed twice with PBS, then PBS added for imaging.
# The values for each well were consistent with that of the control group of wells that were not exposed to the dye in wells A1-A3. The bright well at F12 is a solution of Compound VIII at 5 μM in PBS to insure imaging of the dye is occurring.
compound,measurement,value
CN1C=CC=C2C1=N/C(=C\C=C1/C[N+](C)(C)CC(/C=C/C3=Nc4c(ccc[n+]4C)C3(C)C)=C1Cl)C2(C)C.I [Compound VIII],Avg Radiant Efficiency,3.33E+07 [p/s/cm^2/sr]/[μW/cm^2]
